Data: patent US20110104194A1 (NEW YORK UNIVERSITY, published 2011)
Results are given in words; binding and its absence hold for the method and conditions named. Some binding calls cover weakened binding; strength is not graded here. Tags and fused reporters may be left off the sequences shown.

Sequences of proteins named here, by UniProt entry; tags and fusion partners are left off. A change or cut given only in a name is not applied to a line headed by its entry.
UniProt P25391: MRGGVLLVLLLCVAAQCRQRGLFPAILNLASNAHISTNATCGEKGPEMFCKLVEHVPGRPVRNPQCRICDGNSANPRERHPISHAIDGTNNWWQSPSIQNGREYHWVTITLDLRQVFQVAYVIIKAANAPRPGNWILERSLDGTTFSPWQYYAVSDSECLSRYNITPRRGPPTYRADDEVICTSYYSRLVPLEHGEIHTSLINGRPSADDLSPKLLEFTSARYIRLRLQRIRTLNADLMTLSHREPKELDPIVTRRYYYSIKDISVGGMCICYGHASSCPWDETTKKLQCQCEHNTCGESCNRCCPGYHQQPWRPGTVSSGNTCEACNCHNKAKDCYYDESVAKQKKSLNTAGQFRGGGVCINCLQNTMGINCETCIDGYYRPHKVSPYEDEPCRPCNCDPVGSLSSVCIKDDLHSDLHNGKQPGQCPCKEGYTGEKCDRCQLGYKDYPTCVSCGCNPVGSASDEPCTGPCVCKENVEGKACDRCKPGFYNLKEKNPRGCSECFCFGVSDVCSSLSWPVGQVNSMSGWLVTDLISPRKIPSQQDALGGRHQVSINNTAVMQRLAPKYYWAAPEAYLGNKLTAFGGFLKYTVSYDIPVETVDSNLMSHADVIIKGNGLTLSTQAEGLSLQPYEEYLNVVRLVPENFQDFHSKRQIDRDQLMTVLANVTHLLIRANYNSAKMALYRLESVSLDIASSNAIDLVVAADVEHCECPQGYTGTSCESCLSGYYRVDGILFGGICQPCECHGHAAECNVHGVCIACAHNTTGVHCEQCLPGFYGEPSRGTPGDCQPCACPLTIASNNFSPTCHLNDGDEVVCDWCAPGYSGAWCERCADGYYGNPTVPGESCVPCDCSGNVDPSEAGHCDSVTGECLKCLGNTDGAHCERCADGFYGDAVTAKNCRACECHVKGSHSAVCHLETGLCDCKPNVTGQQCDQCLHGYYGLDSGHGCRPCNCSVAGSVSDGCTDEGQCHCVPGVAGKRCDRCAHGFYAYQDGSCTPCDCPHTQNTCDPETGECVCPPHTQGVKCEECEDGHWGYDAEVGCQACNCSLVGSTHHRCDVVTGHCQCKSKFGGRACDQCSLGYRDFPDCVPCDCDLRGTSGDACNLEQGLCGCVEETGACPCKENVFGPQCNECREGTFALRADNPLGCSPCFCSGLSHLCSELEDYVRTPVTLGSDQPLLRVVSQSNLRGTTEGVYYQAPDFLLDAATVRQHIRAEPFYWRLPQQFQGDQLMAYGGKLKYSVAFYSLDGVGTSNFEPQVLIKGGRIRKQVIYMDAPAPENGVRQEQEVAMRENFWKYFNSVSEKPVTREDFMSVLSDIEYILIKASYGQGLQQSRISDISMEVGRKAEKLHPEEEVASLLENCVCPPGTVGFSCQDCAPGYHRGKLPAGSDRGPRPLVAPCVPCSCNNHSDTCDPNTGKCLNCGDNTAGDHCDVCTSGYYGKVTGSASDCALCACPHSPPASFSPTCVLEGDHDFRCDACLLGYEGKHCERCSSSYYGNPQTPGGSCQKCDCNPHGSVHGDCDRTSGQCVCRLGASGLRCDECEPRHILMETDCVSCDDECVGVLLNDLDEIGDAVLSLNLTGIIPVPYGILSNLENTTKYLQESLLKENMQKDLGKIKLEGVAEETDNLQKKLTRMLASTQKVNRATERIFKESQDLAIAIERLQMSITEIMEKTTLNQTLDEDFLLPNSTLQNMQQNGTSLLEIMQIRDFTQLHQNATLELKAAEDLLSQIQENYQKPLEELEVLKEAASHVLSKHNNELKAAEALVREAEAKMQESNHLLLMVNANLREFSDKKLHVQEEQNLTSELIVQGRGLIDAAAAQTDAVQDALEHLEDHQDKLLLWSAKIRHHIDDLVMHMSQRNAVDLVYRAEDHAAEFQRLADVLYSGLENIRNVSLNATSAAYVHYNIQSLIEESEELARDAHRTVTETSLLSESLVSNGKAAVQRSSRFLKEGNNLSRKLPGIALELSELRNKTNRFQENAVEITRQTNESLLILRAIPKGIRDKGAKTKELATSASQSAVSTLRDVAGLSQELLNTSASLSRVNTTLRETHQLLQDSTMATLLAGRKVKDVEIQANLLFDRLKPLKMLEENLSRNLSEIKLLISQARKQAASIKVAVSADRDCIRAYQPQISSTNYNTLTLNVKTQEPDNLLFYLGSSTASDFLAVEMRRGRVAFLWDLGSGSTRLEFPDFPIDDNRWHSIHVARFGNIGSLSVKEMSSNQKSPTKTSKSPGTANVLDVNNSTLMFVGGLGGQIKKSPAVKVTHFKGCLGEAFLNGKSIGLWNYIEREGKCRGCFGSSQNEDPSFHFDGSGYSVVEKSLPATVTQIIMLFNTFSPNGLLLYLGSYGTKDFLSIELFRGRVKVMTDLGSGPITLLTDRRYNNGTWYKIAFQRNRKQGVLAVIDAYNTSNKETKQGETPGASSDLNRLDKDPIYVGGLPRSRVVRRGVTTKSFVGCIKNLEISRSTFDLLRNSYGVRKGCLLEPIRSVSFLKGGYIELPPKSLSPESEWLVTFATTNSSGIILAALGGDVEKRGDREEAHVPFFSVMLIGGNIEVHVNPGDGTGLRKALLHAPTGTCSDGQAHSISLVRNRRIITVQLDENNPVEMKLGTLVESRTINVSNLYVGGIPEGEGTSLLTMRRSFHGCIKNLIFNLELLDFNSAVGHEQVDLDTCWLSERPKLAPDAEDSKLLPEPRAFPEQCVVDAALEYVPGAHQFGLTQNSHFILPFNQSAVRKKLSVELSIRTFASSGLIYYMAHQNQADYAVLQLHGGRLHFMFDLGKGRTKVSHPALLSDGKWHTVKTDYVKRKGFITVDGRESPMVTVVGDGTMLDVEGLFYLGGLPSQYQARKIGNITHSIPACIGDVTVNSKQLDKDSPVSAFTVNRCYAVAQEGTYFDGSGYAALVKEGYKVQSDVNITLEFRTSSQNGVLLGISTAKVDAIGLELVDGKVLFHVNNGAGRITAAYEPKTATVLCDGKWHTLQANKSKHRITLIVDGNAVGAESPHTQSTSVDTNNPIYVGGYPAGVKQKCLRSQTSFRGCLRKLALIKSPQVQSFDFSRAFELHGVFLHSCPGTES

How the values were obtained:
[1] = biological target: Laminin-1 (human placenta) (human) (UniProt P25391); test: western blot overlay and ELISA (discussion of the examples)
[2] = biological target: Laminin-1 (human placenta) (human) (UniProt P25391); test: western blot overlay: rPTRP on the blot, ECM protein 5 µg/ml, anti-ECM antibody
[3] = biological target: Laminin-1 (human placenta) (human) (UniProt P25391); test: ELISA: rPTRP coated at 5-20 µg/ml, laminin 0.5 µg/ml, anti-ECM antibody
[4] = biological target: Laminin-1 (human placenta) (human) (UniProt P25391); test: western blot overlay and ELISA (FIG. 8)

Measured: binding

B1: purified recombinant PTRP (rPTRP), GST tag cleaved (other)
chain: MDVALGVAVTDRVARLALVDSAAPGTVIDQFVLDVAEHPVEVLTETVVGTDRSLAGENHRLVATRLCWPDQAKADELQHALQDSGVHDVAVISEAQAATALVGAAHAGSAVLLVGDETATLSVVGDPDAPPTMVAVAPVAGADATSTVDTLMARLGDQALAPGDVFLVGRSAEHTTVLADQLRAASTMRVQTPDDPTFALARGAAMAAGAATMAHPALVADATTSLPRAEAGQSGSEGEQLAYSQASDYELLPVDEYEEHDEYGAAADRSAPLSRRSLLIGNAVVAFAVIGFASLAVAVAVTIRPTAASKPVEGHQNAQPGKFMPLLPTQQQAPVPPPPPDDPTAGFQGGTIPAVQNVVPRPGTSPGVGGTPASPAPEAPAVPGVVPAPVPIPVPIIIPPFPGWQPGMPTIPTAPPTTPVTTSATTPPTTPPTTPVTTPPTTPPTTPVTTPPTTPPTTPVTTPPTTVAPTTVAPTTVAPTTVAPTTVAPATATPTTVAPQPTQQPTQQPTQQMPTQQQTVAPQTVAPAPQPPSGGRNGSGGGDLFGGF
notes: also called Proline-Threonine Repetitive Protein; Rv0538
binds: all assays above
